Bridge positions count the residues as written; N and C are the ends. Ends that are not written are not given here.

This data set deals with EGFR overexpressed in MDA-MB-231 cells. The data set can be described thus: Phage display screening (C7C library), occurrence frequency of selected phage clones. To be noted: 35 plaques from the third round of selection. More on the design: species or system human.
For “CEKMVATHC (disulfide 1-9 (inferred)) [01cys_EGFR, Phage-display selected cyclic EGFR peptide ligand, one disulphide bond, amidated C-terminus]”, the “occurrence frequency of selected phage clones, %” value turned out to be 51.4% and the “occurrence frequency of selected phage clones, Ratio” value is given as 18/35.

Regarding “CGTNPIKKC (disulfide 1-9 (inferred)) [30cys_EGFR, Peptide insert of selected M13 phage clone, tested only as phage]”, the “occurrence frequency of selected phage clones, %” value came out at 8.5% and the “occurrence frequency of selected phage clones, Ratio” value was 3/35.

Regarding “CPSDEHHTC (disulfide 1-9 (inferred)) [06cys_EGFR, Phage-display selected cyclic EGFR peptide ligand, one disulphide bond, amidated C-terminus]”, the “occurrence frequency of selected phage clones, %” value was 20% and the “occurrence frequency of selected phage clones, Ratio” value is given as 7/35.

As for “CSRSMDSTC (disulfide 1-9 (inferred)) [04cys_EGFR, Peptide insert of selected M13 phage clone, tested only as phage]”, the “occurrence frequency of selected phage clones, %” value is on record as 20% and the “occurrence frequency of selected phage clones, Ratio” value is 7/35.
